PubChem BioAssay AID1159584 – Peter MacCallum Cancer Centre | 2016
The whole screen tested about 18,000 reagents; below is a random part of them. Further read-outs or replicates are left out here. Reagent sequences are not shown. The record does not give: the amount of reagent, the time to read-out.

- Screen: 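Knock-downs that harm CDH1-null cells more than parental MCF10A cells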 (primary screen)
- Cell system: human MCF10A breast epithelial cells, parental and CDH1-null
- Knock-down reagent: siRNA against human genes
- Detection: 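ATP luminescence (CellTiter-Glo) viability per line relative to mean mock wells over all plates, and the ratio of CDH1-null to parental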
- Direction: CDH1-null / parental viability ratio: higher = CDH1-null cells survive relatively better than parental; CDH1-null viability vs mock: higher = more viable CDH1-null cells
- Units: CDH1-null viability vs mock in fraction of mock

For GRIN2A the deposit lists CDH1-null / parental viability ratio 1.28; CDH1-null viability vs mock 1.1.
After knock-down of SPRY3, the record shows CDH1-null / parental viability ratio 0.67; CDH1-null viability vs mock 0.44.
After knock-down of KRTAP5-10 the results were CDH1-null / parental viability ratio 1.19; CDH1-null viability vs mock 0.83.
NPAS2 gave CDH1-null / parental viability ratio 1.15; CDH1-null viability vs mock 1.08.
After knock-down of DCBLD1 the results were CDH1-null / parental viability ratio 0.92; CDH1-null viability vs mock 0.9.
After knock-down of CBLN2 the results were CDH1-null / parental viability ratio 1.58; CDH1-null viability vs mock 0.52.
Silencing of BRCC3 gave: CDH1-null / parental viability ratio 0.73; CDH1-null viability vs mock 0.56.
Silencing of DPP4 resulted in: CDH1-null / parental viability ratio 1.02; CDH1-null viability vs mock 0.86.
Silencing of MEX3B came out at: CDH1-null / parental viability ratio 1.01; CDH1-null viability vs mock 1.01.
Against ERC1, the entry reads CDH1-null / parental viability ratio 0.87; CDH1-null viability vs mock 0.66.
Depletion of KRT6B came out at: CDH1-null / parental viability ratio 1.2; CDH1-null viability vs mock 1.04.
Knock-down of NUMA1 gave: CDH1-null / parental viability ratio 1.18; CDH1-null viability vs mock 0.4.
After knock-down of HLA-DPB1, the record shows CDH1-null / parental viability ratio 0.83; CDH1-null viability vs mock 0.67.
For ADAD2 the deposit lists CDH1-null / parental viability ratio 0.97; CDH1-null viability vs mock 1.01.
After knock-down of SLC17A1, the record shows CDH1-null / parental viability ratio 0.93; CDH1-null viability vs mock 0.8.
PLEC gave CDH1-null / parental viability ratio 1.01; CDH1-null viability vs mock 0.78.
With knock-down of PYCR3, the screen gave CDH1-null / parental viability ratio 1.06; CDH1-null viability vs mock 1.12.
DUX5 showed CDH1-null / parental viability ratio 1.11; CDH1-null viability vs mock 0.62.
Against IGDCC4, the values are CDH1-null / parental viability ratio 0.94; CDH1-null viability vs mock 0.84.
After knock-down of FYCO1, the screen gave CDH1-null / parental viability ratio 1.08; CDH1-null viability vs mock 1.06.

Copied from the entries so far, 3 entries:
HLA-DPB1 — CDH1-null / parental viability ratio: 0.83; CDH1-null viability vs mock: 0.67
ADAD2 — CDH1-null / parental viability ratio: 0.97; CDH1-null viability vs mock: 1.01
SLC17A1 — CDH1-null / parental viability ratio: 0.93; CDH1-null viability vs mock: 0.8

The results go on.
BAGE gave CDH1-null / parental viability ratio 0.96; CDH1-null viability vs mock 0.86.
Knock-down of FAM151B gave: CDH1-null / parental viability ratio 1.01; CDH1-null viability vs mock 0.76.
Against IMPG2, the values are CDH1-null / parental viability ratio 0.79; CDH1-null viability vs mock 0.68.
For APOF, the values are CDH1-null / parental viability ratio 1.14; CDH1-null viability vs mock 0.57.
After knock-down of RENBP, the record shows CDH1-null / parental viability ratio 1.02; CDH1-null viability vs mock 1.1.
Against FBXO10 the deposit lists CDH1-null / parental viability ratio 1.03; CDH1-null viability vs mock 0.8.
For EPHB2, the values are CDH1-null / parental viability ratio 1.03; CDH1-null viability vs mock 1.08.
SUGP1 scored CDH1-null / parental viability ratio 0.67; CDH1-null viability vs mock 0.61.
With knock-down of P2RY8, the screen gave CDH1-null / parental viability ratio 0.77; CDH1-null viability vs mock 0.83.
FGF13 scored CDH1-null / parental viability ratio 0.84; CDH1-null viability vs mock 0.82.
For IL12RB2 the deposit lists CDH1-null / parental viability ratio 0.82; CDH1-null viability vs mock 0.68.
OR2D2 gave CDH1-null / parental viability ratio 0.78; CDH1-null viability vs mock 0.72.
Silencing of DIPK1B came out at: CDH1-null / parental viability ratio 1.19; CDH1-null viability vs mock 1.01.
Against DMRT3, the entry reads CDH1-null / parental viability ratio 0.81; CDH1-null viability vs mock 0.76.
Depletion of KCTD20 resulted in: CDH1-null / parental viability ratio 1.17; CDH1-null viability vs mock 0.94.
